This experiment deals with human Dual Specificity Styrosine-Phosphorylation-Regulated Kinase 1A (DYRK1a), DYRK1A (gene 1859) (UniProt Q13627). As to the kind of experiment: NVS_ENZ_hDYRK1a: NovaScreen (NVS) Enzymatic Assay for human Dual Specificity Styrosine-Phosphorylation-Regulated Kinase 1A (DYRK1a). Here is the method: NVS_ENZ_hDYRK1a is a biochemical, single-readout assay that uses extracted gene-proteins in a cell-free assay. Measurements were taken 1 hour after chemical dosing in a 96-well plate.NVS_ENZ_hDYRK1a is one of one assay component(s) measured or calculated from the NVS_ENZ_hDYRK1a assay. It is designed to make measurements of enzyme activity, a form of enzyme reporter, as detected with fluorescence intensity signals by Fluorescence and electrophoretic mobility shift technology.Data from the assay component NVS_ENZ_hDYRK1a was analyzed into 1 assay endpoint. This assay endpoint, NVS_ENZ_hDYRK1a, was analyzed in the positive analysis fitting direction relative to DMSO as the negative control and baseline of activity. Using a type of enzyme reporter, loss-of-signal activity can be used to understand changes in the enzymatic activity as they relate to the gene DYRK1A. Furthermore, this assay endpoint can be referred to as a primary readout, because this assay has produced multiple assay endpoints where this one serves a enzymatic activity function. To generalize the intended target to other relatable targets, this assay endpoint is annotated to the kinase intended target family, where the subfamily is dual-specific kinase. […]

Each structure is given as a SMILES string. This is a selection; strong and weak results do not stand in their true shares. Records with an inconclusive call do not appear. Activity calls are given as the source filed them. Rule for the calls: active = hit-call score of the fitted dose curve at least 0.9, where 1 is the maximum; inconclusive = response in the unintended direction; inactive = score below 0.9.

With `O=S(=O)(O)C(F)(F)C(F)(F)C(F)(F)C(F)(F)C(F)(F)C(F)(F)C(F)(F)C(F)(F)F`, the AC50 (commonly the concentration at which the activity in the assay is half-maximal) was active: 18.5 µM.
